Results on two molecules are retold here after US20250313650A1 (BIOLEGEND, published 2025).

Sequences of proteins named here, by UniProt entry; tags and fusion partners are left off. Residues count along the entry.
UniProt P36222, residues 22-383: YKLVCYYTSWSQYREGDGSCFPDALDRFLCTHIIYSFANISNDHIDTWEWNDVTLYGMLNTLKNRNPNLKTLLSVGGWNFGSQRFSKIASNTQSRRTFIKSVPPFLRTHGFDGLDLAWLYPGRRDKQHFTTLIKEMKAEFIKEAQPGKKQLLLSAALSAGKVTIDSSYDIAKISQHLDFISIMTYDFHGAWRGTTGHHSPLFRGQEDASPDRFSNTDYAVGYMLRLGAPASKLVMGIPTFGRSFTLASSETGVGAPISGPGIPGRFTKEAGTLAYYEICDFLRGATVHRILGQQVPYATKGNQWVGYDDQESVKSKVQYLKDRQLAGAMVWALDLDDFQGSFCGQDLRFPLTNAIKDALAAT

Assay [1] deals with native CHI3L1 protein in a serum sample (UniProt P36222). Kind of assay: sandwich ELISA; biotinylated Clone F is the detection antibody, avidin-HRP/TMB, absorbance at 450 nm. In general terms: In an ELISA, binding on a coated surface is turned into a signal by an enzyme label.
The target is the same in assay [2]. Nature of the assay: bead-based sandwich immunoassay; Clone F is the capture antibody on beads.
Assay [3] shares this target. Kind of assay: bead-based sandwich immunoassay; biotinylated Clone B is the detection antibody, SAV-PE read-out.
The target is the same in assay [4]. Kind of assay: sandwich ELISA; Clone B is the capture antibody coated on the plate.

No constants are given. Whether binding was seen depends on the method and setting. Some results given as binding are weak or reduced against the parent protein; the word gives no strength.

B1: anti-human CHI3L1 (Clone F) (antibody, V domains shown)
VH: QVQLQQSGPELVRPGVSVKISCKGSGYTFTDYAMHWVKQSHAKSLEWIGVISTYSGHTNYNQKFKGKATMTVDKSSSTAYMELARLTSEDSAIYYCARGVYYKPEFDYWGQGTTLTVSS
VL: DIQMTQSSSSFSVSLGDRVTITCKASEDIYNRLAWYQQKPGNAPRLLIFGATSLETGVPSRFSGSGSGKDYTLSITSLQTEDVATYYCQQYSSTPPTFGGGTKLEIK
notes: Hybridoma monoclonal antibody; a mouse IgG1 kappa isotype control was used alongside it
For B1, the binding result in assay [1] and in assay [2] was “binds” throughout.

B2: Clone B (antibody, V domains shown)
VH: EVKLLESGGGLVQPGGSLKLSCAASGCDFSRYWMSWVRQAPGKGLEWIGEINPDSSTINYTPSLKDKFIISRDNAKNTLYLQMSKVRSEDTALYYCARPEDHFAMDYWGQGTSVTVSS
VL: DIQMTQSPASQSASLGESVTITCLASQTIGTWLAWYQQKPGKSPQLLIYAATSLADGVPSRFSGSGSGTKFSFKISSLQAEDFVSYYCQQLYSTPWTFGGGTKLEIK
notes: Hybridoma monoclonal antibody
Consider B2, for which the binding result in assay [3] and in assay [4] was “binds” each time.
